From PubChem BioAssay AID651640 (Broad Institute, 2012)
Among all 350,000 compounds or so, about 6,000 (1.7%) were called active. Inconclusive results, whose numbers are uncertain, are shown with a selection of clear calls. Cut-off read from the data, not from the text of the source: active = CPE inhibition above about 20% (passing the limit was not always enough); inconclusive = no clear call, values can overlap the other calls; tested in BHK-21 cells. Some compounds were tested as several samples or in several runs, with calls that do not always agree.

Assay: protection of cells from dengue 2 killing – plate reader, single concentration, primary screen (AID 651640);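 note: 0% = median of neutral control wells and 100% = median of positive control wells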
Details: DENV2-infected cells, cytopathic effect rescue, at 9.99 µM, hits give high values
For `COc1ccccc1NC(=O)CSc1nnc(-c2ccoc2C)n1C`, the CPE inhibition was inconclusive: 30.8%.
In the case of `COc1ccc(-c2c(C(=O)c3ccccc3)[nH]c(N)c2C(=O)NCCc2c[nH]c3ccccc23)cc1`, the CPE inhibition is reported as active: 31.2%.
For `CCCNC(=O)N1CC2(C1)CN(Cc1ccccc1)[C@H](CO)c1[nH]c3cc(OC)ccc3c12`, the CPE inhibition was inconclusive: 61.5%.
In the case of `COc1ccccc1CNC(=O)C[C@@H]1C[C@H]2c3cc(NS(C)(=O)=O)ccc3O[C@H]2[C@H](CO)O1`, the CPE inhibition is reported as inactive: 1.62%.
In the case of `Cc1ccc(S(=O)(=O)N(C)C[C@@H]2Oc3ccc(NC(=O)Cn4cnnn4)cc3CC(=O)N([C@H](C)CO)C[C@@H]2C)cc1`, the CPE inhibition is reported as active: 30.8%.
With `O=C(Nc1ncccc1O)c1ccc(S(=O)(=O)N2CCCCCC2)cc1` the CPE inhibition was active: 71.9%.
In the case of `CC(=O)N(C)C[C@@H]1Oc2cc(C#Cc3ccc(F)cc3)ccc2S(=O)(=O)N([C@H](C)CO)C[C@H]1C`, the CPE inhibition is reported as inconclusive: 34%.
With `COc1ccc(S(=O)(=O)Nc2ccc3c(c2)C(=O)N([C@@H](C)CO)C[C@H](C)[C@H](CN(C)S(=O)(=O)c2ccc(OC)cc2)OCCCC[C@@H](C)O3)cc1` the CPE inhibition was inconclusive: 33.1%.
With `COc1ccc(S(=O)(=O)Nc2cccc3c2O[C@@H](CN(C)Cc2ccc(-c4ccccc4)cc2)[C@@H](C)CN([C@H](C)CO)C3=O)cc1` the CPE inhibition was inactive: 11.3%.
For `O=C(Nc1ccc(F)cc1)N[C@H]1CC[C@@H](CC(=O)N2CCOCC2)O[C@H]1CO`, the CPE inhibition was inactive: 11.1%.
For `O=C(Nc1ccccc1F)N1CCCCN2[C@H](CO)[C@@H](c3ccc(C#Cc4ccccc4)cc3)[C@@H]2C1`, the CPE inhibition was active: 20.8%.
In the case of `CN(C)C(=O)C[C@H]1CC[C@@H]2[C@H](COC[C@@H](O)CN2CC2CCCC2)O1`, the CPE inhibition is reported as inactive: 12.4%.
For `O=C(C[C@H]1CC[C@@H](NC(=O)CN2CCOCC2)[C@@H](CO)O1)NC1CCC1`, the CPE inhibition was inconclusive: 27%.
With `Cc1ccc(S(=O)(=O)N[C@H]2CC[C@@H](CCn3cc(C(C)C)nn3)O[C@@H]2CO)cc1` the CPE inhibition was inconclusive: 26.6%.
With `COc1ccc(C(N)c2csc(Nc3cc(Oc4ccccc4)ncn3)n2)cc1` (centres undefined) the CPE inhibition was active: 53.1%.
With `COc1ccc(-c2coc(CCC(=O)N3CCN(c4cc(C)ccc4C)CC3)n2)cc1` the CPE inhibition was inconclusive: 29.3%.
With `COc1ccc(NC(=O)N(C)C[C@@H]2Oc3ccc(NC(=O)Cc4ccccc4)cc3C(=O)N([C@H](C)CO)C[C@@H]2C)cc1` the CPE inhibition was inactive: 0.624%.
In the case of `CCCCOc1ccc(CSCCN)cc1Cl`, the CPE inhibition is reported as inconclusive: 44.2%.
For `Cc1ccc(NNC(=O)c2cc(C)on2)c(C)c1`, the CPE inhibition was inconclusive: 43.1%.
For `Cc1ccc(S(=O)(=O)N2CCCCC2)cc1NCC(=O)Nc1ccc(Br)cc1F`, the CPE inhibition was inconclusive: 46.1%.
With `CC1(C)C[C@H]2C3=CCC4[C@@]5(C)CC[C@H](O)[C@](C)(CO)C5CC[C@@]4(C)[C@]3(C)C[C@H]3O[C@@H]1[C@H](O)[C@]32CO` (some centres undefined) the CPE inhibition was active: 40.8%.
For `CCn1cc(C(=O)N[C@@H](CCSC)C(=O)NC(C)(C)CO)c(=O)c2cc3c(cc21)OCO3`, the CPE inhibition was inconclusive: 72.8%.
For `CC(C)(C)[C@H]1C=C(C(=O)N2CCOCC2)O[C@@H](OCc2ccc(CO)cc2)C1`, the CPE inhibition was active: 35.7%.
With `C=CCN(c1ccccc1)S(=O)(=O)c1cccc(C(=O)NCc2ccncc2)c1` the CPE inhibition was inactive: 14%.
With `COc1cccc(-n2c(SCC(=O)Nc3nc4ccccc4s3)nc3ccccc3c2=O)c1` the CPE inhibition was inconclusive: 28%.
With `COc1ccccc1-c1ccc2c(c1)[C@H]1[C@H](CCN1S(=O)(=O)c1cccc(C)c1)[C@H](CO)N2` the CPE inhibition was inconclusive: 54.4%.
For `COc1ccc(-c2cnc3c(NC(C)=O)cc(-c4ccccc4OC)cn23)cc1OC`, the CPE inhibition was active: 30.1%.
With `O=C(C[C@@H]1C[C@@H]2c3cc(NC(=O)CC4CC4)ccc3O[C@@H]2[C@H](CO)O1)NCc1ccccc1` the CPE inhibition was inactive: 7.35%.
In the case of `CCOC(=O)C(=CNc1ccc(OC)cc1[N+](=O)[O-])C(=O)OCC`, the CPE inhibition is reported as inconclusive: 22.4%.
With `C[C@@H]1CN([C@@H](C)CO)S(=O)(=O)c2ccc(C#CC3CC3)cc2O[C@@H]1CN(C)C` the CPE inhibition was inconclusive: 22%.
With `O=C(O)c1cc(-c2ccc(-c3c(-c4ccc5c(c4)OCO5)noc3-c3ccsc3)cc2)nc2ccccc12` the CPE inhibition was inconclusive: 26.8%.
In the case of `O=C(C[C@@H]1C[C@H]2c3cc(NS(=O)(=O)c4ccc(F)cc4)ccc3O[C@H]2[C@@H](CO)O1)NC1CCCC1`, the CPE inhibition is reported as inactive: -3.48%.
For `O=C1c2ccccc2C(=O)N1CCOc1ccccc1Cl`, the CPE inhibition was inconclusive: 26.9%.
In the case of `O=C(NC1CCCCC1)c1csnn1`, the CPE inhibition is reported as inconclusive: 45.5%.
With `C[C@H](CO)N1C[C@H](C)[C@H](CN(C)C(=O)Cc2ccccc2)Oc2ncc(C#CC3(O)CCCC3)cc2C1=O` the CPE inhibition was inconclusive: 4.47%.
For `COc1ccc2c3c(n(C)c2c1)[C@H](CO)N(C(=O)Nc1ccc(F)cc1)CC31CCN(C(=O)CC2CC2)CC1`, the CPE inhibition was inactive: -8.54%.
In the case of `COc1cc(CCCN2C(=S)NC[C@@H]2Cc2ccccc2)cc(OC)c1OC`, the CPE inhibition is reported as inactive: -12%.
With `CC(C(=O)c1ccccc1)C(O)c1ccccn1` (centres undefined) the CPE inhibition was inactive: 5.15%.
In the case of `COC(=O)c1ccc(Cn2ccc(=O)[nH]c2=O)cc1`, the CPE inhibition is reported as inconclusive: 26%.
In the case of `COCCCNC(=O)CSc1nc2c(sc(=S)n2-c2cc(Cl)ccc2OC)c(=O)[nH]1`, the CPE inhibition is reported as inactive: -2.31%.
For `O=C([C@@H]1[C@@H](CO)[C@@H]2Cn3c(ccc(C4=CCCCC4)c3=O)[C@H]1N2)N1CCCCC1`, the CPE inhibition was active: 34.8%.
In the case of `O=C(N[C@@H]1CC[C@H](CCNS(=O)(=O)c2ccccc2)O[C@@H]1CO)c1cnccn1`, the CPE inhibition is reported as inactive: 11%.
For `O=C(C[n+]1ccc(/C=N/O)cc1)NC(=O)Nc1ccccc1`, the CPE inhibition was inconclusive: 35.1%.
With `Cc1cnc(C(=O)N(c2ccccc2)C(c2ccccc2)c2nc3ccccc3[nH]2)cn1` (centres undefined) the CPE inhibition was inconclusive: 26.2%.
With `O=C(Nc1cccc(C(F)(F)F)c1)c1cccc(NS(=O)(=O)c2ccc(O)c(C(=O)O)c2)c1` the CPE inhibition was inactive: 8.08%.
For `Cc1ccc(-c2nn(-c3ccccc3)cc2/C=C/C(=O)O)o1`, the CPE inhibition was inconclusive: 31.5%.
In the case of `COCC(=O)N1CCCCN2[C@H](C1)[C@H](c1ccc(C#Cc3ccccc3)cc1)[C@@H]2CO`, the CPE inhibition is reported as active: 39.9%.
With `Cc1noc(C)c1S(=O)(=O)Nc1cccc2c1O[C@@H](CN(C)C(=O)Nc1ccc(F)cc1)[C@@H](C)CN([C@H](C)CO)C2=O` the CPE inhibition was inactive: -11.5%.
With `O=C(Cc1ccc(Cl)cc1)NNC1CC(=O)N(c2ccc3ccccc3c2)C1=O` (centres undefined) the CPE inhibition was inconclusive: 26.5%.
With `CCCc1nc2ccc(Br)cn2c1Cc1cccc(Cl)c1` the CPE inhibition was inconclusive: 43.2%.
In the case of `O=C(Nc1ccccc1F)N1CC(=O)N2[C@H](C1)[C@@H](c1ccc(C#Cc3ccccc3)cc1)[C@@H]2CO`, the CPE inhibition is reported as inconclusive: 26%.
In the case of `C[C@@H]1NS(=O)(=O)[C@H]2C[C@@H]3C=C[C@]2(O3)[C@H]1OC(=O)Nc1ccc(C(F)(F)F)cc1[N+](=O)[O-]`, the CPE inhibition is reported as inconclusive: 43.9%.
With `COc1ccc(CC(=O)Nc2cccc(S(=O)(=O)N3CCCCC3)c2)cc1` the CPE inhibition was inconclusive: 31.5%.
For `CCCC(=O)Nc1ccc2c(c1)OC[C@H](C)N(Cc1ccccn1)C[C@H](C)[C@H](OC)CN(C)C2=O`, the CPE inhibition was inactive: -5.49%.
For `Cc1ccc(OS(=O)(=O)c2c(C)nn(C)c2Cl)c(C)c1`, the CPE inhibition was inconclusive: 30.1%.
For `C[C@@H]1CN([C@H](C)CO)C(=O)c2cc(NC(=O)C3CCCCC3)ccc2O[C@@H]1CN(C)S(C)(=O)=O`, the CPE inhibition was active: 24.2%.
With `O=C(Oc1c(CN2CCOCC2)cc(Cl)c2cccnc12)c1ccccc1Br` the CPE inhibition was active: 41%.
In the case of `O=C(CCCN1C(=O)/C(=C/c2ccccc2)SC1=S)Nc1ccccc1O`, the CPE inhibition is reported as inactive: -3.56%.
In the case of `O=C(Cc1cccnc1)N[C@H]1CC[C@@H](CCn2cc(Cc3ccccc3)nn2)O[C@@H]1CO`, the CPE inhibition is reported as inactive: 4.57%.
For `CCCN(C)C[C@H]1Oc2cc(C#CCOC)ccc2S(=O)(=O)N([C@@H](C)CO)C[C@H]1C`, the CPE inhibition was inconclusive: 28.3%.
For `CN(C)c1cccc(C(=O)N(C)C2CCCN(Cc3ccccc3F)C2)c1` (centres undefined), the CPE inhibition was inconclusive: 21.9%.
For `Cc1cc(C)cc(CC(=O)N2CCC2(C)C(=O)NS(=O)(=O)c2ccccc2Cl)c1` (centres undefined), the CPE inhibition was inconclusive: 29.6%.
For `CCOC(=O)N1CCN(C(=O)c2c(Cl)cnn2C)CC1`, the CPE inhibition was inconclusive: 31.7%.
In the case of `COc1cc(OC)cc(C(=O)NCC(=O)Nc2ccc(C)c(Cl)c2)c1`, the CPE inhibition is reported as inconclusive: 25.4%.
In the case of `C[C@H]1CN([C@@H](C)CO)C(=O)Cc2cc(NS(=O)(=O)c3ccc(Cl)cc3)ccc2O[C@H]1CN(C)C(=O)NC1CCCCC1`, the CPE inhibition is reported as active: 32.5%.
For `CC(NC(=O)CCc1ccccc1)c1ccc2c(c1)OCO2` (centres undefined), the CPE inhibition was active: 28.6%.
In the case of `COc1ccc(Nc2nc(C)cc(C)c2C#N)cc1OC`, the CPE inhibition is reported as inconclusive: 66.2%.
In the case of `CC(=O)C1C(c2ccc(Br)cc2)c2c(noc2C)CC1(C)O` (centres undefined), the CPE inhibition is reported as inconclusive: 28.5%.
With `O=C(C[C@H]1CC[C@@H]2[C@H](COC[C@H](O)CN2Cc2ccccc2)O1)NCCc1ccccc1` the CPE inhibition was inconclusive: 63.7%.
For `Cc1ccccc1-c1cnc2c(c1)C(=O)N([C@@H](C)CO)C[C@@H](C)[C@@H](CN(C)CC1CCOCC1)O2`, the CPE inhibition was inconclusive: 25.6%.
For `COCC(=O)N[C@@H]1CC[C@H](CC(=O)NCc2ccccc2OC)O[C@@H]1CO`, the CPE inhibition was inactive: 9.43%.
For `C[C@@H]1CCCCO[C@@H](CN(C)Cc2ccc(Cl)c(Cl)c2)[C@@H](C)CN([C@H](C)CO)C(=O)c2cc(NC(=O)Nc3cccc4ccccc34)ccc2O1`, the CPE inhibition was active: 21.9%.
For `Cn1c(NCc2ccccc2F)nc2cc(-c3ccccc3)sc2c1=O`, the CPE inhibition was inactive: -1.97%.
With `COc1cccc(C(=O)NNC(=O)c2ccccc2)c1` the CPE inhibition was inactive: -2.11%.
